Assay results taken from PubChem BioAssay AID1671190 (National Center for Advancing Translational Sciences (NCATS), 2021).
The campaign covered roughly 580,000 compounds. About 6,100 (1.1%) were called active. The shares of active, inactive and inconclusive entries below differ from those in the screen. The call rests on the fitted dose curve; in most records, active means well fitted inhibition curve with a large enough effect; inconclusive means small, poorly fitted or top-dose-only effect, or another doubt; inactive means no such curve, though single readings can be large or run the other way. Where the call is inconclusive, the potency comes from a doubtful curve fit.

Protein sequences, listed by entry. Tags and fused reporters are not part of them. Lines headed by an entry give the natural chain unless they say otherwise; changes in a name come on top.
UniProt P18054: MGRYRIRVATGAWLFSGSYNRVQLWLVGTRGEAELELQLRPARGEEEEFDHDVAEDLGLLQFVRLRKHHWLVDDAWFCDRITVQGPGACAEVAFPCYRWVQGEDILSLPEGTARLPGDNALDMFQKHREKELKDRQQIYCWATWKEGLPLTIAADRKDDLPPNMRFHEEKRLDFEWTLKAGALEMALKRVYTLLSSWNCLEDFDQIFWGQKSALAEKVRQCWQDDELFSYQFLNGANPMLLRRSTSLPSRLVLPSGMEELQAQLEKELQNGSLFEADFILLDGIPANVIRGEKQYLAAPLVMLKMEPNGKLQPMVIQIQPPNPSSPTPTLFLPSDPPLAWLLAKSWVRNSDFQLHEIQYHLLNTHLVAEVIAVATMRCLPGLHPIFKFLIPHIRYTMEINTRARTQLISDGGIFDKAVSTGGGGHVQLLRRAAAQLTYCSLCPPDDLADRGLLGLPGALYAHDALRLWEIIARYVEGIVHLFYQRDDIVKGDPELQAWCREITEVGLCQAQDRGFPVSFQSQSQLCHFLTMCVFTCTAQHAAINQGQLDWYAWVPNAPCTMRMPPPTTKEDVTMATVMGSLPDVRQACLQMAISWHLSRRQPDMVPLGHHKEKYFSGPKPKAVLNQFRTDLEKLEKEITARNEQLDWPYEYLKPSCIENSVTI

These compounds were tested against Polyunsaturated fatty acid lipoxygenase ALOX12 (Homo sapiens) (UniProt P18054) (assay: Primary qHTS assay for inhibitors of human arachidonate 12S-lipoxygenase (ALOX12): Round 2). Settings: purified 12hLO, xylenol orange hydroperoxide absorbance; activity change, negative = inhibition: at 108 µM (top of the series) unless noted.
Summary of the method: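 Purified human 12hLO at 150 nM in 25 mM Hepes, 0.01% Triton X-100, pH 7.0, preincubated 15 min at room temperature with compound. Reaction started with 40 uM arachidonic acid, 30 min at room temperature. Hydroperoxide measured by Fe-xylenol orange, 573/405 nm absorbance ratio.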
On the % scale 0 is the no-effect control and ±100 the full control effect; potency means the concentration at half of the fitted maximal effect.

Question: `COc1ccc(/C=C2/SC(=S)N(NS(=O)(=O)c3ccc(C)cc3)C2=O)cc1` was tested. Which Potency did it give?
Answer: Its Potency is inconclusive: 44.7 µM [inhibitor, partial curve, poor fit].

Question: For `Cc1ccc(-c2cn3c(n2)CO[C@@H](CNC(=O)NCc2ccccc2)C3)cc1`, which Potency is on record?
Answer: Its Potency is “inactive”.

Question: For `COc1ccc(-c2sc3ccc(OC)cc3c2C#Cc2ccccn2)cc1`, which Potency is on record?
Answer: Its Potency is inconclusive: 25.1 µM [inhibitor, full curve].

Question: With `COc1ccc(Cc2n[nH]c(=S)n2-c2cc(C)ccc2C)cc1OC` as the compound, how does the Potency read?
Answer: Its Potency is inconclusive: 112 µM [inhibitor, partial curve, poor fit].

Question: With `CC(c1ccco1)N(C(=O)COc1ccc(Cl)cc1Cl)c1ccccn1` (stereo not given) as the compound, how does the Potency read?
Answer: The Potency was “inactive”.

Question: With `COc1ccc(-c2noc(-c3cccn3CC(=O)Nc3cc(Cl)ccc3OC)n2)cc1F` as the compound, how does the Potency read?
Answer: Its Potency is inconclusive: 50.1 µM [inhibitor, partial curve, poor fit].

Question: With `Cc1cccc(Nc2cc(=O)n(C)c(=O)n2C)c1` as the compound, how does the Potency read?
Answer: The Potency was inconclusive: 100 µM [inhibitor, single point].

Question: For `CCOC(=O)c1ccccc1OCc1cc(/C=N/NC(=O)c2cccnc2)ccc1OC`, which Potency is on record?
Answer: The Potency was inconclusive: 2.24 µM [inhibitor, single point].

Question: For `CC(=O)C1CCC2C3CCC4=CC(=O)C=CC4(C)C3CCC12C` (stereo not given), which Potency is on record?
Answer: The Potency was “inactive”.

Question: `O=C(Nc1ccc2oc(=O)ccc2c1)c1ccc2ccccc2c1` was tested. Which Potency did it give?
Answer: The Potency was inconclusive: 112 µM [inhibitor, partial curve, poor fit].

Question: With `CCOC(=O)c1c(C)sc2c1N(C(C)=O)c1cc(Cl)ccc1S2` as the compound, how does the Potency read?
Answer: Its Potency is “inactive”.

Question: `N#Cc1ncn(Cc2coc(-c3cccc(Cl)c3)n2)n1` was tested. Which Potency did it give?
Answer: Its Potency is inconclusive: 44.7 µM [inhibitor, partial curve, poor fit].

Question: Which Potency does the source give for `O=C(Cc1ccccc1)N1CCCC(c2nn(-c3ccc(Cl)cc3)c(=O)[nH]2)C1` (stereo not given) here?
Answer: The Potency was active: 31.6 µM.

Question: `O=C(/C=C/c1ccco1)NC(=S)Nc1ccc(N2CCCC2)cc1` was tested. Which Potency did it give?
Answer: The Potency was inconclusive: 39.8 µM [inhibitor, partial curve].

Question: `CCOc1ccccc1OCC(=O)Nc1cc2c(cc1C(=O)O)OCCCO2` was tested. Which Potency did it give?
Answer: The Potency was inconclusive: 141 µM [inhibitor, partial curve, poor fit].

Question: For `O=C(CCCN1C(=O)/C(=C/c2ccccc2Cl)SC1=S)N1CCCC1`, which Potency is on record?
Answer: The Potency was “inactive”.

Question: How did the Potency turn out when `Cc1ccc(S(=O)(=O)c2nnn3c2nc(NCCCOC(C)C)c2ccccc23)cc1C` was run?
Answer: Its Potency is inconclusive: 112 µM [inhibitor, partial curve, poor fit].

Question: With `COc1ccc(-c2c(C(=O)O)sc3c2NC(=O)CC32C(=O)Nc3c(C)cccc32)cc1` (stereo not given) as the compound, how does the Potency read?
Answer: The Potency was inconclusive: 50.1 µM [inhibitor, single point].

Question: `CC1CCC/C(=C\Nc2ccc3c(c2)OCO3)C1=O` (stereo not given) was tested. Which Potency did it give?
Answer: Its Potency is inconclusive: 100 µM [inhibitor, partial curve, poor fit].

Question: Which Potency does the source give for `Cc1cccc(NC(=O)Cn2c(-c3cnccn3)nc(C)c(C)c2=O)c1C` here?
Answer: The Potency was “inactive”.

Question: How did the Potency turn out when `CCn1cnc2c1c(=O)n(CC(=O)OC1CCCCC1)c(=O)n2Cc1ccccc1` was run?
Answer: Its Potency is inconclusive: 50.1 µM [inhibitor, single point].

Question: `Cc1ccccc1-n1c(C)cc(/C=C2/C(=N)N3C(c4ccccc4)=CSC3=NC2=O)c1C` was tested. Which Potency did it give?
Answer: The Potency was inconclusive: 79.4 µM [inhibitor, partial curve, poor fit].

Question: How did the Potency turn out when `Cc1nc(CN2CCN(S(=O)(=O)c3cc(Cl)ccc3Cl)CC2)cs1` was run?
Answer: The Potency was inconclusive: 3.55 µM [inhibitor, full curve, poor fit].

Question: For `CCOC(=O)C1CCN(Cc2coc3ccc(Cl)cc3c2=O)CC1`, which Potency is on record?
Answer: The Potency was inconclusive: 1.58 µM [inhibitor, full curve, poor fit].

Question: Which Potency does the source give for `CCCn1nc(C(=O)NCC(=O)Nc2ccc(F)c(F)c2)c2ccccc2c1=O` here?
Answer: The Potency was inconclusive: 5.01 µM [inhibitor, full curve, poor fit].

Question: `CCOC(=O)C1=C(CS(=O)(=O)c2ccc(F)c(C)c2)NC(=O)NC1c1ccc(O)c(O)c1` (stereo not given) was tested. Which Potency did it give?
Answer: Its Potency is inconclusive: 56.2 µM [inhibitor, partial curve, poor fit].

Question: For `COc1cc(C(=O)NC(=S)N(CCc2ccccc2)CCc2ccccc2)cc(OC)c1OC`, which Potency is on record?
Answer: Its Potency is inconclusive: 44.7 µM [inhibitor, partial curve].

Question: How did the Potency turn out when `CC(C)CNC(=O)NC(=O)COC(=O)c1cc(-c2ccco2)nc2ccccc12` was run?
Answer: Its Potency is inconclusive: 7.94 µM [inhibitor, full curve, poor fit].

Question: Which activity change, negative = inhibition does the source give for `O=S(=O)(c1ccc(F)cc1)N(CCO)CC(O)Cn1c2ccccc2c2ccccc21` (stereo not given) here?
Answer: Its activity change, negative = inhibition is inconclusive: -30.6% [inhibitor].

Question: For `Cc1nc2ncnn2c(N(C)C)c1Cc1ccccc1`, which Potency is on record?
Answer: Its Potency is “inactive”.

Question: For `O=C(Cc1ccccn1)c1ccc(O)cc1O`, which Potency is on record?
Answer: Its Potency is inconclusive: 4.47 µM [inhibitor, full curve, poor fit].

Question: How did the Potency turn out when `CCc1nnc(NC(=O)CSc2ccc(-c3nc4ccccc4[nH]3)cn2)s1` was run?
Answer: The Potency was inconclusive: 89.1 µM [inhibitor, partial curve, poor fit].

Question: How did the Potency turn out when `COc1ccc2oc(-c3ccc(C)c(NC(C)=O)c3)nc2c1` was run?
Answer: The Potency was inconclusive: 35.5 µM [inhibitor, single point].

Question: `CCCC(=O)Nc1ccc2oc(-c3ccc(OC)c(Br)c3)nc2c1` was tested. Which Potency did it give?
Answer: Its Potency is inconclusive: 126 µM [inhibitor, partial curve, poor fit].

Question: How did the Potency turn out when `CC1CCCC/C1=N\NC(=O)CCC(=O)Nc1ccc(Br)cc1` (stereo not given) was run?
Answer: Its Potency is “inactive”.

Question: Which Potency does the source give for `O=C(CCc1nc2sc3c(c2c(=O)[nH]1)CCC3)N1CCCCC1` here?
Answer: Its Potency is inconclusive: 35.5 µM [inhibitor, partial curve].

Question: How did the Potency turn out when `CC(C)CS(=O)(=O)N[C@H](C)c1onc(-c2cccnc2)c1C(=O)O` was run?
Answer: The Potency was inconclusive: 20 µM [inhibitor, full curve].

Question: For `O=C(Nc1ccc(Cl)c(C(=O)NC2CCCCC2)c1)c1ccncc1`, which Potency is on record?
Answer: Its Potency is inconclusive: 35.5 µM [inhibitor, single point].

Question: With `CCC(CO)NC(=O)c1cc2c(s1)CCC2` (stereo not given) as the compound, how does the Potency read?
Answer: The Potency was “inactive”.

Question: Which Potency does the source give for `Cc1ccc(S(=O)(=O)NNC(=S)NCC2CCCO2)cc1` (stereo not given) here?
Answer: Its Potency is inconclusive: 3.16 µM [inhibitor, full curve, poor fit].

Question: `Oc1ccc(Cl)cc1CNCc1ccc(Cl)cc1` was tested. Which Potency did it give?
Answer: Its Potency is inconclusive: 35.5 µM [inhibitor, partial curve, poor fit].

Question: Which Potency does the source give for `CC(C)C[C@@H]1CN(CCCC[C@H]2CNC(=O)C(=O)N2CCC2CCCCC2)C(=O)C(=O)N1CCc1ccc(O)cc1` here?
Answer: The Potency was inconclusive: 112 µM [inhibitor, single point].

Question: Which Potency does the source give for `Cc1cccc(N(C)c2cc(-c3ccc(F)cc3)nc3ccnn23)c1` here?
Answer: The Potency was inconclusive: 31.6 µM [inhibitor, partial curve].

Question: How did the Potency turn out when `CSCC(C)N1CCC(n2nccc2NC(=O)CCCc2ccccc2)CC1` (stereo not given) was run?
Answer: The Potency was “inactive”.

Question: With `COCCNC(=O)[C@H]1C[C@H](Oc2cccnc2)CN1C(=O)NCc1ccc(C)cc1` as the compound, how does the Potency read?
Answer: Its Potency is “inactive”.

Question: `COc1c(N)ccnc1-c1cccc(CN2CCOCC2)c1` was tested. Which Potency did it give?
Answer: The Potency was inconclusive: 3.98 µM [inhibitor, full curve, poor fit].

Question: With `Cc1cc(C(=O)OCC(=O)Nc2cc(F)ccc2F)c2ccccc2n1` as the compound, how does the Potency read?
Answer: The Potency was inconclusive: 31.6 µM [inhibitor, full curve, poor fit].

Question: Which Potency does the source give for `N#CC(C(=O)/C=C/c1ccccc1)C(=O)NC1CCCCC1` (stereo not given) here?
Answer: Its Potency is inconclusive: 50.1 µM [inhibitor, single point].

Question: How did the Potency turn out when `O=C(C1=C(c2ccccc2)SCCO1)N(Cc1cccs1)C1CCS(=O)(=O)C1` (stereo not given) was run?
Answer: The Potency was “inactive”.

Question: For `O=C(/C=C/Nc1ccccc1)c1ccc(Cl)cc1Cl`, which Potency is on record?
Answer: Its Potency is inconclusive: 70.8 µM [inhibitor, partial curve, poor fit].

Question: Which Potency does the source give for `Cc1ccc(C(=O)O)cc1NC(=O)C1CCCN1S(=O)(=O)c1cccc2nsnc12` (stereo not given) here?
Answer: Its Potency is inconclusive: 112 µM [inhibitor, single point].

Question: For `CCCCOc1ccc(C(=O)N2CCCCC2CCN2CCOCC2)cc1` (stereo not given), which Potency is on record?
Answer: Its Potency is “inactive”.

Question: With `CCCC1CCC(c2ccc(C#N)c(=O)[nH]2)CC1` (stereo not given) as the compound, how does the Potency read?
Answer: The Potency was inconclusive: 2.82 µM [inhibitor, full curve, poor fit].

Question: How did the Potency turn out when `N#Cc1ccccc1OCC(=O)OCC(=O)c1c[nH]c2ccccc12` was run?
Answer: Its Potency is inconclusive: 126 µM [inhibitor, single point].

Question: `CCOC(=O)C(=O)Nc1nnc(C2CCCCC2)s1` was tested. Which Potency did it give?
Answer: Its Potency is inconclusive: 56.2 µM [inhibitor, partial curve, poor fit].

Question: How did the Potency turn out when `Cc1cccc(CNc2cc(-c3ccccc3Cl)ncn2)c1` was run?
Answer: Its Potency is inconclusive: 12.6 µM [inhibitor, partial curve, poor fit].

Question: `COc1cc(C(=O)N2CCN(c3ccc(C)cc3C)CC2)cc(OC)c1OC` was tested. Which Potency did it give?
Answer: The Potency was “inactive”.

Question: `O=c1oc2ccc(Br)cc2cc1S(=O)(=O)N1CCc2ccccc2C1` was tested. Which Potency did it give?
Answer: Its Potency is inconclusive: 158 µM [inhibitor, single point].

Question: How did the Potency turn out when `CN(CC(=O)Nc1c(Cl)cccc1Cl)C(=O)CNC(=O)c1ccc2ccccc2c1` was run?
Answer: The Potency was inconclusive: 56.2 µM [inhibitor, partial curve, poor fit].

Question: With `CNCc1sc2ccccc2c1C` as the compound, how does the Potency read?
Answer: Its Potency is inconclusive: 31.6 µM [inhibitor, single point].

Question: For `Cc1noc(C)c1-c1cc2c(cc(C)n2C)c(-c2cccc(O)c2)n1`, which Potency is on record?
Answer: The Potency was inconclusive: 112 µM [inhibitor, partial curve].

Question: For `COc1ccc(C(=O)CCC(=O)OCC(=O)c2ccc(Cl)c(Cl)c2)cc1`, which Potency is on record?
Answer: Its Potency is inconclusive: 5.01 µM [inhibitor, full curve, poor fit].

Question: Which Potency does the source give for `S=c1[nH]ccn1-c1cccc(Cl)c1Cl` here?
Answer: The Potency was inconclusive: 39.8 µM [inhibitor, partial curve, poor fit].

Question: For `S=c1[nH]c(-c2ccccc2)cn1/N=C/c1ccncc1`, which Potency is on record?
Answer: Its Potency is inconclusive: 39.8 µM [inhibitor, partial curve].

Question: How did the Potency turn out when `O=c1ccc2cc(S(=O)(=O)NCCCc3ccccc3)ccc2[nH]1` was run?
Answer: Its Potency is inconclusive: 141 µM [inhibitor, single point].
